Experimental data taken from US20030129658A1.
Results are given in words; binding and its absence hold for the method and conditions named. A result given as binding can be weak or reduced; the word gives no strength.

Target: T1, α2-macroglobulin (UniProt Q7SIH1)
T1 sequence (looked up): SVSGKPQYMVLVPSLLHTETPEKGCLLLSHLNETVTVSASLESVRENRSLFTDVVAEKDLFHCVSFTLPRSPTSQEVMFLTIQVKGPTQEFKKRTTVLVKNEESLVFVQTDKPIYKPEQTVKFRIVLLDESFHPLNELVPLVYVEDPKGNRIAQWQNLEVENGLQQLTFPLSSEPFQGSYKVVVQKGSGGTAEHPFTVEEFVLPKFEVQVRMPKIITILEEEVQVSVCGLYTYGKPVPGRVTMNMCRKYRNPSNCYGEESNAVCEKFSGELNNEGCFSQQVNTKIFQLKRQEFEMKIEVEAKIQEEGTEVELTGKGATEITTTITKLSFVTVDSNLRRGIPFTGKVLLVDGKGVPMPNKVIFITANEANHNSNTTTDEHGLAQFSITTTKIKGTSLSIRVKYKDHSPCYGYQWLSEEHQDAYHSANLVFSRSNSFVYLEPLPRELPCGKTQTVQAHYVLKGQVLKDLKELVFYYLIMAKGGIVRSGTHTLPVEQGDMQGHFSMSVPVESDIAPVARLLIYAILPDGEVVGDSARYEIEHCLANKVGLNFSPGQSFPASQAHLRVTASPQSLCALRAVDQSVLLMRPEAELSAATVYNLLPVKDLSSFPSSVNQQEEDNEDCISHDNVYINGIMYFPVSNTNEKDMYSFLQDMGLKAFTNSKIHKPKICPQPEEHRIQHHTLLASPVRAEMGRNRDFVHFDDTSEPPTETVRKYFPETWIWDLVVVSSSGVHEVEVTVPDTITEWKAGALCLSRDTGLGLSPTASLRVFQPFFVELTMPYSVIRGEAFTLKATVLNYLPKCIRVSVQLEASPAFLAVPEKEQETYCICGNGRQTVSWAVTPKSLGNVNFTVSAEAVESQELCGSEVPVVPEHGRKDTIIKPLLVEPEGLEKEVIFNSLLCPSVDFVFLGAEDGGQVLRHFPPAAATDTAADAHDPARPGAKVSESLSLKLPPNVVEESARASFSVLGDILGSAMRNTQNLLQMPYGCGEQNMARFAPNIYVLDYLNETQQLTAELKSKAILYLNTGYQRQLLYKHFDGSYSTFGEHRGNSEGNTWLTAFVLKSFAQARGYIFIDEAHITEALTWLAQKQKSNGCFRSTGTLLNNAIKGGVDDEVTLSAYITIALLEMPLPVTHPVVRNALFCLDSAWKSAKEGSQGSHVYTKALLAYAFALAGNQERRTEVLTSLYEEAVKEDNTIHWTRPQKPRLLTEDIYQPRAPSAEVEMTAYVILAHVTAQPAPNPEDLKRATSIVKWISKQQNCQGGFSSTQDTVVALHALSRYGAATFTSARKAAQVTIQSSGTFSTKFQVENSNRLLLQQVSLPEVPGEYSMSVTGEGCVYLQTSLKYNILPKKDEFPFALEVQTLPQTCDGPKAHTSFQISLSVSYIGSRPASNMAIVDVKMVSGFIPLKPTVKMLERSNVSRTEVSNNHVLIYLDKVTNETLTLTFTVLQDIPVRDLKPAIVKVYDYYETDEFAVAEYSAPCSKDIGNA
Assay: reducing SDS-PAGE and western blot with goat anti-α2-macroglobulin antibody; ~250 kDa band in culture supernatant with serum

Substance: MDTS9 truncated protein (MDTS9Cys2) (enzyme)
- binding: binds
